Data: patent US7994209B2, “3-phenoxymethylpyrrolidine compounds” (Theravance, Inc., priority 2009, dated 2011)

Chains of the proteins cited; added tags and fusions are not shown.
UniProt P23975, whole entry: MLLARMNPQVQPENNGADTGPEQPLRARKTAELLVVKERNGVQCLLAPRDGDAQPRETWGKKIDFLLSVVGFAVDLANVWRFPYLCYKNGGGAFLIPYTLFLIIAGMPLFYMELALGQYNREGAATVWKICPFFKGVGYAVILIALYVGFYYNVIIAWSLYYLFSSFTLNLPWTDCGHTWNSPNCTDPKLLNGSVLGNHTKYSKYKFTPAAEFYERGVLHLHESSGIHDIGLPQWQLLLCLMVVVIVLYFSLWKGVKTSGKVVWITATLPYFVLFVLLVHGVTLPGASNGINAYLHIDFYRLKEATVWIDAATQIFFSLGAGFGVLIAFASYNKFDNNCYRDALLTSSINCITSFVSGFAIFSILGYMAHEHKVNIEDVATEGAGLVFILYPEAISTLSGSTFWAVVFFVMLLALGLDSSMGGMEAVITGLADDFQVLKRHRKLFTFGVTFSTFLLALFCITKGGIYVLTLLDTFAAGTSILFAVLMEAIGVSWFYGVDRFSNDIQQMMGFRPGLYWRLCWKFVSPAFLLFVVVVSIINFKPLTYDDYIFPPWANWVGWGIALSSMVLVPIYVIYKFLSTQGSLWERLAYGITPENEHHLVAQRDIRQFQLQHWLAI
UniProt P31645, whole entry: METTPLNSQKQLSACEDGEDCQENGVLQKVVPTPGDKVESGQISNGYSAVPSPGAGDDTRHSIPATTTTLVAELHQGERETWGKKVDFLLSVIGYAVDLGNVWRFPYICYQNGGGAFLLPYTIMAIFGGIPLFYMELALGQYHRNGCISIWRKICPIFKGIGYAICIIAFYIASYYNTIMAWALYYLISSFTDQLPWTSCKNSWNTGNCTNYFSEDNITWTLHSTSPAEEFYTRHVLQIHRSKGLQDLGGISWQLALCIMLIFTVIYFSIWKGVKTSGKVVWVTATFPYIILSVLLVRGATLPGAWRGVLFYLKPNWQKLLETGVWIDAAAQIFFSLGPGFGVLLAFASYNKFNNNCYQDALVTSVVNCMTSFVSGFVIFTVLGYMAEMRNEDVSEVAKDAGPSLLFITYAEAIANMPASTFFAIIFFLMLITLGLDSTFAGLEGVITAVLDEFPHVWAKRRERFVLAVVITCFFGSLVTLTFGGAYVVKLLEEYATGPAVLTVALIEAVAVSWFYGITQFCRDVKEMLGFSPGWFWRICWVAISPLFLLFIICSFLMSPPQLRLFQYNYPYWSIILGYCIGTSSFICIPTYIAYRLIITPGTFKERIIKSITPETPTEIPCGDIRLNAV

Legend:
hNET [1] = molecular target: T1, hNET (Homo sapiens, UniProt P23975); assay: hNET neurotransmitter uptake assay (3H-NE), Assay 2; type: cell-based; design: expressed in transfected cells; host or cells: HEK-293; settings: norepinephrine reuptake inhibition, 3H-NE uptake, HEK-293 hNET cells (values without asterisk); read-out: NET pIC50 (converted)
Description: (§1) Cells were harvested by centrifugation at 1100 rpm for 5 minutes, washed once by resuspension in PBS, then centrifuged. The supernatant was discarded and the cell pellet resuspended, by gentle trituration, in room temperature Krebs-Ringer bicarbonate buffer containing HEPES (10 mM), CaCl2 (2.2 mM), ascorbic acid (200 μM) and pargyline (200 μM), pH 7.4.
(§2) Test compounds were incubated for 30 minutes at 37° C. with the respective cells, prior to addition of radiolabeled neurotransmitter, ^3H-5-HT (20 nM final concentration), ^3H-NE (50 nM final concentration) or ^3H-DA (100 nM final concentration).

hNET [2] = molecular target: T1, hNET; assay: hNET membrane radioligand binding assay (3H-nisoxetine), Assay 1
hSERT [3] = molecular target: T2, hSERT (Homo sapiens, UniProt P31645); assay: hSERT membrane radioligand binding assay (3H-citalopram), Assay 1; settings: SERT pKi, hSERT HEK-293 membranes, 1.0 nM 3H-citalopram; values given as lower bounds
hSERT [4] = molecular target: T2, hSERT; assay: hSERT neurotransmitter uptake assay (3H-5-HT), Assay 2; type: cell-based; design: expressed in transfected cells; host or cells: HEK-293; settings: serotonin reuptake inhibition, 3H-5-HT uptake, HEK-293 hSERT cells (values without asterisk); read-out: SERT pIC50 (converted)
Description: as §1, §2

IC50 (hNET [1]) [nM]	Ki (hNET [2]) [nM]	Ki (hSERT [3]) [nM]	IC50 (hSERT [4]) [nM]	SMILES
≤ 10	≤ 10	≤ 10	≤ 10	Cc1c(Cl)cccc1O[C@H](C1CC1)[C@H]1CCNC1 [Example 15, (S)-3-[(R)-(3-Chloro-2-methylphenoxy)cyclopropylmethyl]pyrrolidine]
	≤ 100	≤ 10		Cc1c(Cl)cccc1O[C@@H](C1CC1)[C@@H]1CCNC1 [Example 16-13, (R)-3-[(S)-(3-Chloro-2-methylphenoxy)cyclopropylmethyl]pyrrolidine]
≤ 100	≤ 10	≤ 10	≤ 10	Cc1c(Cl)cccc1O[C@H](C1CC1)[C@@H]1CCNC1 [Example 16-14, (R)-3-[(R)-(3-Chloro-2-methylphenoxy)cyclopropylmethyl]pyrrolidine]
≤ 10	≤ 10	≤ 10	≤ 10	Cc1c(Cl)cccc1O[C@@H](C1CC1)[C@H]1CCNC1 [Example 16-15, (S)-3-[(S)-(3-Chloro-2-methylphenoxy)cyclopropylmethyl]pyrrolidine]
